Source: the supplement of paper PMC12067093, “Discovery and optimisation of a covalent ligand for TRIM25 and its application to targeted protein ubiquitination” (Chemical Science, 2025)
The other results are listed elsewhere or left out.

Sequences of proteins named here, by UniProt entry; tags and fusion partners are left off. A change or cut given only in a name is not applied to a line headed by its entry.
UniProt Q8WVM7: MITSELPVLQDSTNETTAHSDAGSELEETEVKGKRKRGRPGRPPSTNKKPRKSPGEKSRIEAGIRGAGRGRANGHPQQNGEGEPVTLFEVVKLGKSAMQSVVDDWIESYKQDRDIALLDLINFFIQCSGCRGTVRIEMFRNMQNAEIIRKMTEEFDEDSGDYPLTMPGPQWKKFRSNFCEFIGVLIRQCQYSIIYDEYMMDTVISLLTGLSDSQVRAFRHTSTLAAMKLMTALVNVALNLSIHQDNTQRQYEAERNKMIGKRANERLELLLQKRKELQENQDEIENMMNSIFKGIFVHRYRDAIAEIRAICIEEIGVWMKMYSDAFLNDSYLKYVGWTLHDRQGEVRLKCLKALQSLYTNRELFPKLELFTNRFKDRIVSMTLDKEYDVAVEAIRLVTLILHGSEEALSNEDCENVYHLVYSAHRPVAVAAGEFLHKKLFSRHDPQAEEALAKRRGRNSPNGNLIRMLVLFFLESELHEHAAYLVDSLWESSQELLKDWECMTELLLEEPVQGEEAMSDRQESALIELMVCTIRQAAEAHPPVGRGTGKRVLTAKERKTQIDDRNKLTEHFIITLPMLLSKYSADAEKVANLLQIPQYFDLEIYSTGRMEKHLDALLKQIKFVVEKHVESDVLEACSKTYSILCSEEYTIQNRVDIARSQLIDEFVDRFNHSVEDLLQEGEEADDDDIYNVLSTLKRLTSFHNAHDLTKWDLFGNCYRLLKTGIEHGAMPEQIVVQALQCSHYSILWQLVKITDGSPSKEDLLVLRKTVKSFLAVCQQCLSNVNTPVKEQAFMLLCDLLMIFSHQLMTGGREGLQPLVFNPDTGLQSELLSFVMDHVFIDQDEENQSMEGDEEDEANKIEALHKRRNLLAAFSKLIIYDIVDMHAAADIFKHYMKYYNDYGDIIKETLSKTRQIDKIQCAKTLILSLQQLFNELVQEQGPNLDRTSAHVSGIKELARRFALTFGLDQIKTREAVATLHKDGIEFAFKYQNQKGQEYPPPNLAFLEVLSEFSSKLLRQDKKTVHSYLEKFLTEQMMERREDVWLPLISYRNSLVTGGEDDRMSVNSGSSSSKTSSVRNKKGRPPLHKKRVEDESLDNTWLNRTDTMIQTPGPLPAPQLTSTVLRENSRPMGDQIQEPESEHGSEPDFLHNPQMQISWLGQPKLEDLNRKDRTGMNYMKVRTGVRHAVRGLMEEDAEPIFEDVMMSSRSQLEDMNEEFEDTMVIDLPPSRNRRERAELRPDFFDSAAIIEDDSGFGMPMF
UniProt P05455: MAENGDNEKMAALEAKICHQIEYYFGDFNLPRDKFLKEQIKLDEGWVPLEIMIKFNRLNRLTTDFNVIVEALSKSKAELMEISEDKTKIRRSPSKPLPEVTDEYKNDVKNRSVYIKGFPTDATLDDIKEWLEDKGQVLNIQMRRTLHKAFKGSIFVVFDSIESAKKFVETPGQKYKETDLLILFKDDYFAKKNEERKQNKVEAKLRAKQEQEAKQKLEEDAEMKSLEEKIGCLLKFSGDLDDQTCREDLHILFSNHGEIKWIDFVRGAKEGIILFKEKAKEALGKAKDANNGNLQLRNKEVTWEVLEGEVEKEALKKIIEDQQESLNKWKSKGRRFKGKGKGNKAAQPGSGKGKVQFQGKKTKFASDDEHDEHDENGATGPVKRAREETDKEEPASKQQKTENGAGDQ
UniProt Q8N1F8: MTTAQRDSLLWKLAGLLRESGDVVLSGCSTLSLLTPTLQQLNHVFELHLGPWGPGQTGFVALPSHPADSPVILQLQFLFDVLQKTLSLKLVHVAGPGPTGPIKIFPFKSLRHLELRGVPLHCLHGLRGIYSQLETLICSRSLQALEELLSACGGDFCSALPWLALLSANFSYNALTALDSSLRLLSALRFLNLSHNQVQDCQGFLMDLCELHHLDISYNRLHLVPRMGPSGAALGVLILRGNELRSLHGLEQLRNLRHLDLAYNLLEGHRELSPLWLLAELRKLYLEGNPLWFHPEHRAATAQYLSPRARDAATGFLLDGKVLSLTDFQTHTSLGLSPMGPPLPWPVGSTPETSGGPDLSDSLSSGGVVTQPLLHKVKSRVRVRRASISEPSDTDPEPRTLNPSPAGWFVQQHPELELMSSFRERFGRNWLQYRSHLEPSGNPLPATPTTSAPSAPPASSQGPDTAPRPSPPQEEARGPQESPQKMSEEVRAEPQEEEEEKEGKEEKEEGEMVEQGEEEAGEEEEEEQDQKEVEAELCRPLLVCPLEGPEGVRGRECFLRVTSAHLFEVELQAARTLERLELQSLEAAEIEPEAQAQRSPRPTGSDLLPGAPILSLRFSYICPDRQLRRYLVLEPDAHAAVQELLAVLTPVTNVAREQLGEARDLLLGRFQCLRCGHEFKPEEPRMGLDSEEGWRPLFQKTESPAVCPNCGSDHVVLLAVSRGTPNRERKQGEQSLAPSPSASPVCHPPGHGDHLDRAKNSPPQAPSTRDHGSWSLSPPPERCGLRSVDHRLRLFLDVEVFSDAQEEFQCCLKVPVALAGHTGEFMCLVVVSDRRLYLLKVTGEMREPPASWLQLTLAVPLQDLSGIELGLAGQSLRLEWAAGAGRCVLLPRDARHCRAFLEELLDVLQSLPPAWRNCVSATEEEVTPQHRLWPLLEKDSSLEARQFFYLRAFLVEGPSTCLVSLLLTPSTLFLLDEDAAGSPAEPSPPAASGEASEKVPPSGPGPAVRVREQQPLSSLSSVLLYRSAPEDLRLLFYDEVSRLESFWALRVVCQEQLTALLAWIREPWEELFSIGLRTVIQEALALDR
UniProt Q8TE77: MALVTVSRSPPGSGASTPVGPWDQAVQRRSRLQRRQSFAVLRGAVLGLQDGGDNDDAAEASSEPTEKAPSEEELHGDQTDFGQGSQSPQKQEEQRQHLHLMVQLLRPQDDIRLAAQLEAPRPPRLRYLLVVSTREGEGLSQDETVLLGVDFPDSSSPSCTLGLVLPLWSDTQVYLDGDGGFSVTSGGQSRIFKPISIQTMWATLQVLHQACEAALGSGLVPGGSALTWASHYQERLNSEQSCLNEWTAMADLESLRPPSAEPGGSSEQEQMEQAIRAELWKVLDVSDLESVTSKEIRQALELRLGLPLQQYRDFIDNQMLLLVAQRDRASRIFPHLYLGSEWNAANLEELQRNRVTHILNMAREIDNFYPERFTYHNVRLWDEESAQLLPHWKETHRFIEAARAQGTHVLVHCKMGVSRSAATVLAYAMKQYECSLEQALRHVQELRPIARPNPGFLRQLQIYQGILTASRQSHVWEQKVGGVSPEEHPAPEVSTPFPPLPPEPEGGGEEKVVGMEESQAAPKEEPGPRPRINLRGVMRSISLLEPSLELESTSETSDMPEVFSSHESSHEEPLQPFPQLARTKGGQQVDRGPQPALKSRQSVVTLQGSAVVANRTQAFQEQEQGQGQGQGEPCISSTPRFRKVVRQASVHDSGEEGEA
UniProt Q9UH99: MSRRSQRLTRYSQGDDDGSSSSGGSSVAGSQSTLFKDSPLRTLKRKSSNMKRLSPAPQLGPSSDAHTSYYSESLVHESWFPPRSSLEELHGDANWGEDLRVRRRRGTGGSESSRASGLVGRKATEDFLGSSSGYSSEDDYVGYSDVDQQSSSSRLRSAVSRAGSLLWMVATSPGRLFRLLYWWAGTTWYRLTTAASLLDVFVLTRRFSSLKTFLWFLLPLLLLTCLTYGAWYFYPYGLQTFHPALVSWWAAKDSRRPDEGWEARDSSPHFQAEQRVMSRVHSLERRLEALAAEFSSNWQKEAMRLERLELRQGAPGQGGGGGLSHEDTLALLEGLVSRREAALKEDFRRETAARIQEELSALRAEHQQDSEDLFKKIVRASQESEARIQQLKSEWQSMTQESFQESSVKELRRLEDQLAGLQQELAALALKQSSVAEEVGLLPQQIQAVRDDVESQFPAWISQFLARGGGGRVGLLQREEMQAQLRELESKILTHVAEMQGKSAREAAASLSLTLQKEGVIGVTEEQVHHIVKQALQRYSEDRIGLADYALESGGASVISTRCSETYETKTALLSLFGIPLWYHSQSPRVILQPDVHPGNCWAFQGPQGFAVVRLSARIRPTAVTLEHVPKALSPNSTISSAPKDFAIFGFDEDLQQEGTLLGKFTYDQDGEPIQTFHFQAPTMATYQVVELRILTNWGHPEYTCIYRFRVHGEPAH
UniProt Q15468: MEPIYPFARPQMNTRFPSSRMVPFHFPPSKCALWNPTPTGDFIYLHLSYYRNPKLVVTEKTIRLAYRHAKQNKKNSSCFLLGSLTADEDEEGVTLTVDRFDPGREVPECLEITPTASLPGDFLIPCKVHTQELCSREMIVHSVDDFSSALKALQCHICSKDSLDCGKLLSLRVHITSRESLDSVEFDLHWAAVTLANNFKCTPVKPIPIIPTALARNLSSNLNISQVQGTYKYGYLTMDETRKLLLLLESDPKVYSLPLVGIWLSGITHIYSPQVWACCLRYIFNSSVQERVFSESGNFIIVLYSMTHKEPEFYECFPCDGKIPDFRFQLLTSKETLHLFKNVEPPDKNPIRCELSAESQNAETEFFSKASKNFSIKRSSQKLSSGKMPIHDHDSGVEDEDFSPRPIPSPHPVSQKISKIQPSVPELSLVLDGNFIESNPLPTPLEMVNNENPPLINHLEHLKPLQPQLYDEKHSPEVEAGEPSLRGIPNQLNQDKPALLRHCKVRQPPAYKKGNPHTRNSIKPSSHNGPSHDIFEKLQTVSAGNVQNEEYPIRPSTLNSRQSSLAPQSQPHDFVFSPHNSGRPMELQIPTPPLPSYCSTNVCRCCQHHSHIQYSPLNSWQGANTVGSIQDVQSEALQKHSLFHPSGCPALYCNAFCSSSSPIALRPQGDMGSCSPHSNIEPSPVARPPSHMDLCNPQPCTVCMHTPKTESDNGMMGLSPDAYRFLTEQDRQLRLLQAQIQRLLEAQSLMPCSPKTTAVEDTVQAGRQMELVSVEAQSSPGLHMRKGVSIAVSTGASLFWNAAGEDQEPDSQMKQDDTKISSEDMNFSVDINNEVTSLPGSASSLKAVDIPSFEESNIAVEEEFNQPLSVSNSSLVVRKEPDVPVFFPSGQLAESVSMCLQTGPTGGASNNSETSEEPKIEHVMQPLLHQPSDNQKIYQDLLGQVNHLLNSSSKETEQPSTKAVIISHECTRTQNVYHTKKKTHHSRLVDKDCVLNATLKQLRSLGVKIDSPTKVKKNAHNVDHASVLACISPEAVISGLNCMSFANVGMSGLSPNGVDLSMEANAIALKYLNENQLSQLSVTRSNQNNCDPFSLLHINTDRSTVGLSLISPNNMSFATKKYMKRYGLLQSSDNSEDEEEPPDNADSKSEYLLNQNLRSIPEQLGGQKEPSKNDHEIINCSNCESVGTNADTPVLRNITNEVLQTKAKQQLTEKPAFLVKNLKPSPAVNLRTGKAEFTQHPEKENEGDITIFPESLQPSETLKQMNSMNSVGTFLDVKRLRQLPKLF
UniProt Q5VSL9: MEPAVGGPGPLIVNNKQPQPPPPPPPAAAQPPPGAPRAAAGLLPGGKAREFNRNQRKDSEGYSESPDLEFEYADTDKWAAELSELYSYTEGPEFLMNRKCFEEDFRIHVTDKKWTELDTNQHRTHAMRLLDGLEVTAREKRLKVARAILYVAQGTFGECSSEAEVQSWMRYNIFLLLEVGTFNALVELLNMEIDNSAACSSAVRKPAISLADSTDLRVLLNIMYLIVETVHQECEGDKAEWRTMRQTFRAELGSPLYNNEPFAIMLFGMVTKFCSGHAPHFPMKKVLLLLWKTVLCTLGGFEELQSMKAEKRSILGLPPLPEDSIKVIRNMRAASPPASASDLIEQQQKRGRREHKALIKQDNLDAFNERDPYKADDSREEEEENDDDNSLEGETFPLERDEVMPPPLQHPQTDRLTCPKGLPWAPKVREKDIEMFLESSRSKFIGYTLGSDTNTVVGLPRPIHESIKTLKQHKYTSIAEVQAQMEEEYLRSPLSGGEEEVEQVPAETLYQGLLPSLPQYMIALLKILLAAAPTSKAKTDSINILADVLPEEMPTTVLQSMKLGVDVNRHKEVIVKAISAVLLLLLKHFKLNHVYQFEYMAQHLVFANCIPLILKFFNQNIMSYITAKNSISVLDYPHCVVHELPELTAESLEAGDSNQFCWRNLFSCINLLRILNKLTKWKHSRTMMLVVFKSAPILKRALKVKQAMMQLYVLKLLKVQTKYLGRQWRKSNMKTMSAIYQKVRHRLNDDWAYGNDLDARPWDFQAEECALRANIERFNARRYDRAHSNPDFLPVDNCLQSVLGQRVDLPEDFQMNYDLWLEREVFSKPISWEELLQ
UniProt Q9UNE7: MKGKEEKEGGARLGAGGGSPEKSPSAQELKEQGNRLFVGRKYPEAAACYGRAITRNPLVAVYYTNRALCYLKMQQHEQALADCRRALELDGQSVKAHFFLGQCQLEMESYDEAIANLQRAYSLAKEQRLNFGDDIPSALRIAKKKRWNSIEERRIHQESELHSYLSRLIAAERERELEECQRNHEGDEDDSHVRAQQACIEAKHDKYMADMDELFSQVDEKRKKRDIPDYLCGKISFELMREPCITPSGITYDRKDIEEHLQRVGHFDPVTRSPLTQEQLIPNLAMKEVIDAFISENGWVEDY

Compound: CC1Cc2ccccc2N1C(=O)C1CCCN(C1)C(=O)CCl (mixture of isomers) [TRIM25 ligand 11 (diastereomer mixture)]
Test: probe-labelled cysteine peptide fold change vs DMSO (competition) (log2 fold change); higher = less target engagement (more negative = stronger competition)
Conditions: THP-1, incubation time: 4 h
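Note: competitive chemoproteomic profiling in live THP-1 cells with an iodoacetamide desthiobiotin (IA-DTB) probe, comparing probe-labelled peptide intensities in compound-treated cells against DMSO-treated controls.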

Row | Target | probe-labelled cysteine peptide fold change (10 µM) | probe-labelled cysteine peptide fold change (50 µM)
1 | STRAP_Q9Y3F4_305_CVLPEEDSGELAK (UniProt Q9Y3F4) | 0.169 | 0.216
2 | STAG1_Q8WVM7_636_HVESDVLEACSK (UniProt Q8WVM7) | 0.014 | 0.0855
3 | SSB_P05455_245_FSGDLDDQTCR (UniProt P05455) | 0.115 | 0.0442
4 | STK11IP_Q8N1F8_918_NCVSATEEEVTPQHR (UniProt Q8N1F8) |  | 0.108
5 | STAG1_Q8WVM7_531_QESALIELMVCTIR (UniProt Q8WVM7) | 0.213 | 0.137
6 | STAMBP_O95630_406+408_DPPLFCSCSHVTVVDR (UniProt O95630) |  | -0.0767
7 | STX16_O14662_150_ACSEQEGR (UniProt O14662) | -0.0522 | 0.0155
8 | SSH3_Q8TE77_634_TQAFQEQEQGQGQGQGEPCISSTPR (UniProt Q8TE77) | -0.0571 | 
9 | SSH3_Q8TE77_434_QYECSLEQALR (UniProt Q8TE77) | 0.121 | 0.23
10 | SUN2_Q9UH99_705_ILTNWGHPEYTCIYR (UniProt Q9UH99) | 0.511 | 0.28
11 | SRPK2_P78362_320_IIEENITSAAPSNDQDGEYCPEVK (UniProt P78362) | 0.18 | -0.374
12 | STARD3_Q14849_317_TVTACQILQR (UniProt Q14849) | -0.00261 | 0.195
13 | STIL_Q15468_970_AVIISHECTR (UniProt Q15468) | -0.137 | -0.0233
14 | STRIP1_Q5VSL9_100_CFEEDFR (UniProt Q5VSL9) | -0.00784 | -0.169
15 | SUPT6H_Q7KZ85_1265_VGMTVHCR (UniProt Q7KZ85) | -0.253 | 0.0584
16 | SRSF10_O75494-5_149_KPNCSWNTQYSSAYYTSR (UniProt O75494) | 0.191 | 0.0171
17 | STYX_Q8WUJ0_62_HGITHIICIR (UniProt Q8WUJ0) | 0.00893 | 0.197
18 | STAG2_Q8N3U4_711_WDLFACNYK (UniProt Q8N3U4) | 0.0901 | 0.11
19 | STK24_Q9Y6E0_415_GAIYLAEEACPGISDTMVAQLVQR (UniProt Q9Y6E0) | 0.113 | 0.0625
20 | STUB1_Q9UNE7_48_KYPEAAACYGR (UniProt Q9UNE7) | -0.0809 | -0.103

Some of the entries so far, as tab-separated lines:
Row	Target	probe-labelled cysteine peptide fold change (10 µM)	probe-labelled cysteine peptide fold change (50 µM)
10	SUN2_Q9UH99_705_ILTNWGHPEYTCIYR (UniProt Q9UH99)	0.511	0.28
13	STIL_Q15468_970_AVIISHECTR (UniProt Q15468)	-0.137	-0.0233
20	STUB1_Q9UNE7_48_KYPEAAACYGR (UniProt Q9UNE7)	-0.0809	-0.103

(further entries)

Row | Target | probe-labelled cysteine peptide fold change (10 µM) | probe-labelled cysteine peptide fold change (50 µM)
21 | ST13_P50502_209_LLGHWEEAAHDLALACKLDYDEDASAMLK (UniProt P50502) |  | -0.574
22 | SRSF9_Q13242_138_EAGDVCYADVQK (UniProt Q13242) | -0.133 | -0.315
23 | STAT3_P40763_108_CLWEESR (UniProt P40763) | -0.0688 | 0.128
24 | STT3A_P46977_637_EGSPVLLNCLMYK (UniProt P46977) | 0.114 | 0.0604
25 | ST14_Q9Y5Y6_602+604_DCDCGLR (UniProt Q9Y5Y6) | 0.00859 | 0.039
26 | SWAP70_Q9UH65_273_CLFLVK (UniProt Q9UH65) | -0.0592 | 0.0489
27 | SUZ12_Q15022_531_TPITHILVCRPK (UniProt Q15022) | -0.255 | -0.241
28 | STXBP3_O00186_90_SVDCFLHDFASK (UniProt O00186) | 0.023 | -0.048
29 | STRIP1_Q5VSL9_798_AHSNPDFLPVDNCLQSVLGQR (UniProt Q5VSL9) | 0.00641 | -0.153
30 | SUPT5H_O00267_740_VELHSTCQTISVDR (UniProt O00267) | -0.00805 | -0.21
31 | SUCLG1_P53597_172_LIGPNCPGVINPGECK (UniProt P53597) | -0.0627 | 
32 | SRPRA_P08240_363_NVAADIAVQLCESVANKLEGK (UniProt P08240) | -0.306 | -0.212
33 | SUPT16H_Q9Y5B9_574_INFYCPGSALGR (UniProt Q9Y5B9) | 0.121 | 
34 | SSB_P05455_245_FSGDLDDQTCREDLHILFSNHGEIK (UniProt P05455) | -0.0319 | -0.181
35 | SRRM2_Q9UQ35_70_CLELEEMMEEQGYEEQQIQEK (UniProt Q9UQ35) | -0.279 | -0.0733
36 | SUCLA2_Q9P2R7_152+158_ICNQVLVCER (UniProt Q9P2R7) | 0.067 | 0.15
37 | STOM_P27105_87_GPGLFFILPCTDSFIK (UniProt P27105) | 0.292 | 0.467
38 | SSX2IP_Q9Y2D8_529_KPHSVSNGSPVCMSK (UniProt Q9Y2D8) | -0.146 | -0.226
39 | STIP1_P31948_417+420_DCEECIQLEPTFIK (UniProt P31948) | 0.0585 | 0.489
40 | STOML2_Q9UJZ1_167_ERESLNASIVDAINQAADCWGIR (UniProt Q9UJZ1) | -0.0664 | 0.0402
